The name of at least one read-out is uncertain. Some results were stated once for a whole list of compounds, not compound by compound.
Tests used:
Assay type in all cases: in vivo, human
[1] = Single and multiple dose pharmacokinetics after oxybutynin gel administration; conditions: first period: single 3 g of 4.4% oxybutynin gel
Experimental: A clinical study in 20 healthy volunteers, 20 to 44 years of age, evaluated the single and multiple dose pharmacokinetics of oxybutynin and N-desethyloxybutynin following topical oxybutynin gel administration. The study employed a two-period multiple dose study.
In the first treatment period, volunteers received a topical administration of 3 g of 4.4% oxybutynin gel followed by a 72 hour evaluation period. The second treatment period, oxybutynin gel was administered topically to the volunteers on 7 consecutive mornings. The two treatment periods were separated by a 7-day washout period. Blood samples were periodically collected throughout the study periods and plasma was harvested according to standard procedures. Plasma oxybutynin and N-desethyloxybutynin metabolite concentrations were estimated using high performance liquid chromatography-tandem mass spectrometry method performed according to established guidelines.
After a 7-day washout following the initial gel application, subjects applied daily 3 g doses of oxybutynin gel to rotating body sites (abdomen, upper arms, thighs) for 7 consecutive days. Plasma samples were drawn each morning before the next gel application.

[2] = Plasma concentrations after single and repeated application of 4.4% oxybutynin gel to the abdomen; conditions: both assessment periods (applications 1 and 3)
From the text: A clinical study in 12 healthy volunteers, 19 to 41 years of age, evaluated plasma concentrations of oxybutynin and the N-desethyloxybutynin metabolite after single and repeated topical applications of oxybutynin gel. The study employed a single-period, open-label, multiple dose design to evaluate the pharmacokinetics and skin tolerability of a gel formulation for oxybutynin hydrochloride.
Volunteers received topical administrations of 3 g of 4.4% oxybutynin gel on 3 consecutive mornings. Each volunteer received the oxybutynin gel administrations on a defined area of unbroken skin on the abdomen. Blood samples were periodically collected throughout the study period and plasma was harvested according to standard procedures. Plasma oxybutynin and N-desethyloxybutynin metabolite concentrations were estimated using high performance liquid chromatography-tandem mass spectrometry method performed according to established guidelines.

[3] = Single-dose pharmacokinetics after oxybutynin gel on 400 cm^2 and 800 cm^2 application areas on the thighs; conditions: 3 g of 4.4% oxybutynin gel, 800 cm^2 application area
From the text: A clinical study in 21 healthy volunteers, 21 to 45 years of age, evaluated the effect of application surface area on the single-dose pharmacokinetic of oxybutynin following topical oxybutynin gel administration. The study employed a two-period, open-labeled, randomized crossover design to evaluate the effect of application surface area on the single dose pharmacokinetics and safety of a topical gel formulation of oxybutynin hydrochloride.
Volunteers received topical administrations of 3 g of 4.4% oxybutynin gel at the beginning of two 72 hour treatment periods, with a minimum six day washout separating the treatment periods. Each volunteer received a dose applied to a 400 cm^2 area in one treatment period, and a dose to an 800 cm^2 area the other treatment period. The sequential order of the treatment periods was randomized. Blood samples were periodically collected throughout the study periods and plasma was harvested according to standard procedures. Plasma oxybutynin and N-desethyloxybutynin metabolite concentrations were evaluated using high performance liquid chromatography-tandem mass spectrometry method performed according to established guidelines.

Compound: CCN(CC)CC#CCOC(=O)C(O)(c1ccccc1)C1CCCCC1 (stereo not shown) [oxybutynin]
- time to Cmax following gel application [1]: 24 h
- time of Cmax following gel application [2]: 24 h
- time of Cmax [3]: 48 h
- time by which plasma levels were measurable ([3]; thighs): ≤ 2 h

Source: patent US10272061B2, “Compositions and methods for unoccluded transdermal oxybutynin therapy” (Allergan Sales, LLC, priority 2000, dated 2019)
